Data as given in PubChem BioAssay AID1259276 (Sanger Institute, 2017).

- Aim: 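Kinome-wide search for kinases colon cancer cells need, and for drug partners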 (primary screen)
- System: human C2BBe1 colorectal cancer cells
- Knock-down reagent: siRNA pool against human genes
- Treatment: DMSO vehicle, or one anchor drug: BYL719 at 1 µM, cetuximab at 5 µg/ml, or trametinib at 10 nM; exposure length not stated
- Detection: 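Viability after knock-down relative to non-targeting siRNA controls, averaged across replicates, given as ratio and control-derived robust z-score, with per-drug synergy scores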
- Direction: viability robust z-score, siRNA alone: higher = more viable cells after knock-down
- Hit rule: 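Called essential when knock-down alone gives a viability robust z-score below -3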
- Calls: active = essential (siRNA alone); inactive = no change (siRNA alone)
This is an unselected part of 794 reagents tested. 24 of all reagents (3%) were called active. 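Calls come only from the siRNA-alone arm; drug synergy scores do not affect them.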 A number with no mark means an inactive call. Further read-outs or replicates are left out here. Not given: the amount of reagent, the time to read-out.

{"target gene": "SNRK (SNF related kinase)", "viability robust z-score, siRNA alone": 0.472}
{"target gene": "CSNK2B (casein kinase 2 beta)", "viability robust z-score, siRNA alone": 0.472}
{"target gene": "FLT1 (fms related receptor tyrosine kinase 1)", "viability robust z-score, siRNA alone": -1.76}
{"target gene": "RIOK2 (RIO kinase 2)", "viability robust z-score, siRNA alone": 0.472}
{"target gene": "CHD9 (chromodomain helicase DNA binding protein 9)", "viability robust z-score, siRNA alone": 0.472}
{"target gene": "SIK3 (SIK family kinase 3)", "viability robust z-score, siRNA alone": 0.472}
{"target gene": "DYRK4 (dual specificity tyrosine phosphorylation regulated kinase 4)", "viability robust z-score, siRNA alone": -0.234}
{"target gene": "BMAL1 (basic helix-loop-helix ARNT like 1)", "viability robust z-score, siRNA alone": 0.472}
{"target gene": "PRPS1L1 (phosphoribosyl pyrophosphate synthetase 1 like 1)", "viability robust z-score, siRNA alone": 0.472}
{"target gene": "FASTK (Fas activated serine/threonine kinase)", "viability robust z-score, siRNA alone": 0.472}
{"target gene": "BRAF (B-Raf proto-oncogene, serine/threonine kinase)", "viability robust z-score, siRNA alone": -1.73}
{"target gene": "PINK1 (PTEN induced kinase 1)", "viability robust z-score, siRNA alone": 0.472}
{"target gene": "AKT1 (AKT serine/threonine kinase 1)", "viability robust z-score, siRNA alone": -1.89}
{"target gene": "MAST2 (microtubule associated serine/threonine kinase 2)", "viability robust z-score, siRNA alone": 0.472}
{"target gene": "PLK3 (polo like kinase 3)", "viability robust z-score, siRNA alone": 0.472}
{"target gene": "MOK (MOK protein kinase)", "viability robust z-score, siRNA alone": 0.472}
{"target gene": "CAMK2B (calcium/calmodulin dependent protein kinase II beta)", "viability robust z-score, siRNA alone": 0.472}
{"target gene": "DYRK1A", "viability robust z-score, siRNA alone": -0.431}
{"target gene": "YES1 (YES proto-oncogene 1, Src family tyrosine kinase)", "viability robust z-score, siRNA alone": 0.472}
{"target gene": "ADGRL2 (adhesion G protein-coupled receptor L2)", "viability robust z-score, siRNA alone": -1.17}
{"target gene": "ACVR2B (activin A receptor type 2B)", "viability robust z-score, siRNA alone": 0.472}
{"target gene": "SRP72 (signal recognition particle 72)", "viability robust z-score, siRNA alone": 0.472}
{"target gene": "ETNK2 (ethanolamine kinase 2)", "viability robust z-score, siRNA alone": 0.472}
{"target gene": "ELF3 (E74 like ETS transcription factor 3)", "viability robust z-score, siRNA alone": -2.42}
{"target gene": "CTCF (CCCTC-binding factor)", "viability robust z-score, siRNA alone": 0.472}
{"target gene": "NR4A2 (nuclear receptor subfamily 4 group A member 2)", "viability robust z-score, siRNA alone": 0.472}
{"target gene": "AGK (acylglycerol kinase)", "viability robust z-score, siRNA alone": 0.472}
{"target gene": "AAK1 (AP2 associated kinase 1)", "viability robust z-score, siRNA alone": 0.472}
